No constants are given. Whether binding was seen depends on the method and setting. Binding seen in cells or lysates may run through a third protein. Some entries that bind do so weakly or less than the wild type.

The chains behind the UniProt entries cited, without tags or fusion partners. Residues count along the entry.
UniProt Q00960, residues 27-1482: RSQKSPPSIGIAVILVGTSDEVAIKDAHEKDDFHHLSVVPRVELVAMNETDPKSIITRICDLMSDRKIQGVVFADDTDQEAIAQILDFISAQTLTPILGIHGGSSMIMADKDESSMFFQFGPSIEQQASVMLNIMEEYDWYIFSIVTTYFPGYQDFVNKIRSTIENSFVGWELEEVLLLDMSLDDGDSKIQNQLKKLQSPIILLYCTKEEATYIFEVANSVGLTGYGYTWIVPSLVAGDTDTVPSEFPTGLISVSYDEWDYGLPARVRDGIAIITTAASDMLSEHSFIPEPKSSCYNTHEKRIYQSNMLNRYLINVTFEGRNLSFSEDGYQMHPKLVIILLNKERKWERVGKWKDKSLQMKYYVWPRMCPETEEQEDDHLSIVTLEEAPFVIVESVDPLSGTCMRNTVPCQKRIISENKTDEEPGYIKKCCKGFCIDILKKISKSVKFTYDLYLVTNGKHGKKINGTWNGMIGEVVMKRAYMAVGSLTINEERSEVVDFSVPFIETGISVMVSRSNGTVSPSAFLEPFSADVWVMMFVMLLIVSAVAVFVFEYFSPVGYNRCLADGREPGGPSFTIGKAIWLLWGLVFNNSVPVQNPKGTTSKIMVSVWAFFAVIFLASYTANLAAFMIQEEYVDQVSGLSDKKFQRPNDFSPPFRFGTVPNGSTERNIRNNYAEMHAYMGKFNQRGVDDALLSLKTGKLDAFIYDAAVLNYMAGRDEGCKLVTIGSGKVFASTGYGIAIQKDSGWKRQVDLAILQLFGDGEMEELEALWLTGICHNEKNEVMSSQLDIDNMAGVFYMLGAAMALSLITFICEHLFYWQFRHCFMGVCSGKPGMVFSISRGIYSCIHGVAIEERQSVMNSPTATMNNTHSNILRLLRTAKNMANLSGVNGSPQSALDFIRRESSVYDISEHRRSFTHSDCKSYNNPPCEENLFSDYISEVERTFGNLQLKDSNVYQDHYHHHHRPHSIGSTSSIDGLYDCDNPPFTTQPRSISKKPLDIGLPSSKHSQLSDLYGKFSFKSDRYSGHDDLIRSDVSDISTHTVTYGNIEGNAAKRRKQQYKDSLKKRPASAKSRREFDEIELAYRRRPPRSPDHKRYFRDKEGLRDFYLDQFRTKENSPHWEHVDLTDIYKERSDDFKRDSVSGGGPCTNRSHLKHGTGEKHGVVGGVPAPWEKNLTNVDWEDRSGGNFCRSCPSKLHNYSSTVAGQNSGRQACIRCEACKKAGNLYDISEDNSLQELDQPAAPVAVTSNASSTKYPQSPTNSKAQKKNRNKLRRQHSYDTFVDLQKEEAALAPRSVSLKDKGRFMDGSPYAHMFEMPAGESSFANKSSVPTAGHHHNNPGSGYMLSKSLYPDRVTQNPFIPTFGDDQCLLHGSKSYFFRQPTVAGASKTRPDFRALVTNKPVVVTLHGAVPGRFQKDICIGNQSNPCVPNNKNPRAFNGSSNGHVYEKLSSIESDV

Assay [1] addresses GluN2A (NMDAR subunit GluN2a) (UniProt Q00959). The experiment in a line: co-IP.
In assay [2] the target is GluN2B (NMDAR subunit GluN2b) (UniProt Q00960). Briefly: co-IP.

Regarding YGRKKRRQRRREEDTDSSEEMLALAEE [TAT-EE3, membrane-permeable disrupting peptide], the binding result in assay [1] and in assay [2] was “binds” throughout.

For the origin of these results see paper doi:10.1101/2021.07.29.454247.
